Measurements: article doi:10.1101/2020.12.21.423430
Where two headings read alike, the source gives them in different places. Results are given in words; binding and its absence hold for the method and conditions named. In cells and extracts the contact can be indirect. These calls come from enrichment with a bait or labelling near it, and not all partners need be listed. Tags and fused reporters may be left off the sequences shown.

Protein sequences, listed by entry. Tags and fused reporters are not part of them.
UniProt P29514: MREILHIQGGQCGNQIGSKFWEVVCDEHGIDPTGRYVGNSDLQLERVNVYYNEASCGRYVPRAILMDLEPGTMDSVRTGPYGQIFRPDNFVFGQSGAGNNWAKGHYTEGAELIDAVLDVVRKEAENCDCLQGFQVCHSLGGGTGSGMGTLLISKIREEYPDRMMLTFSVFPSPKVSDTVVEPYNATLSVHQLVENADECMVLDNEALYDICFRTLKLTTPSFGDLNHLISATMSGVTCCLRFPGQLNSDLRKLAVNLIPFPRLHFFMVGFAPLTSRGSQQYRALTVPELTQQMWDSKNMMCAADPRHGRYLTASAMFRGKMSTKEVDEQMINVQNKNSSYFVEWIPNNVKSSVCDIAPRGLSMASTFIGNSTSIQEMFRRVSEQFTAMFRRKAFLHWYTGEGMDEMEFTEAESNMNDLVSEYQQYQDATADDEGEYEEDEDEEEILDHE

T1: …OPEPTIDE-REPEAT THIOREDOXIN-LIKE 3 (TTL3)-GFP, expressed from pTTL3::TTL3-GFP (Arabidopsis thaliana) (UniProt Q9SIN1)
T1 sequence: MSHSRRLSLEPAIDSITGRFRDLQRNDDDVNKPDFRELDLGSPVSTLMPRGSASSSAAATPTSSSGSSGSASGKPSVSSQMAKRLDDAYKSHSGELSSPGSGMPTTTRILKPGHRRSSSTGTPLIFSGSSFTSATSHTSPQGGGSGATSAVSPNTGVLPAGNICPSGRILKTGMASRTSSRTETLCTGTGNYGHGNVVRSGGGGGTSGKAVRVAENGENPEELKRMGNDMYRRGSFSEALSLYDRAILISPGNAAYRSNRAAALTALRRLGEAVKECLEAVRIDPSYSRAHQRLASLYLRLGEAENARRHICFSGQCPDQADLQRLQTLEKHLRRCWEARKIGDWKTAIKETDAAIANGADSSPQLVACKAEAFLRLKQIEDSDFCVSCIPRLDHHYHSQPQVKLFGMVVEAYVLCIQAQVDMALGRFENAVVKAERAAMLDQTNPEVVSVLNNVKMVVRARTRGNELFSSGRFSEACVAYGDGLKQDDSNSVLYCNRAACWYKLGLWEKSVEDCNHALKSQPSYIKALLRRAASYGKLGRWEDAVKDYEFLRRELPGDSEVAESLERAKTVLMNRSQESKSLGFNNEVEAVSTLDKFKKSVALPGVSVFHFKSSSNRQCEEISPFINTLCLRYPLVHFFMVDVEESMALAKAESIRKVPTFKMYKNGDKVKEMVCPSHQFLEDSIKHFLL


How the values were obtained:
[1] = target: T1, …OPEPTIDE-REPEAT THIOREDOXIN-LIKE 3 (TTL3)-GFP, expressed from pTTL3::TTL3-GFP (Arabidopsis thaliana); experiment: affinity purification with mass spectrometry
[2] = target: T1, …OPEPTIDE-REPEAT THIOREDOXIN-LIKE 3 (TTL3)-GFP, expressed from pTTL3::TTL3-GFP (Arabidopsis thaliana); experiment: affinity purification with mass spectrometry; remark: listed apart in the source

binding [1] | binding [2] | Molecule
binds | – | CLC1, endogenous
binds | – | TUB6 (Tubulin 6), endogenous (from UniProt P29514 1-449)
– | binds | PME3 (pectin methyl esterase 3), endogenous (protein, UniProt O49006 36-592) AGISAGASKANEKRTLSPSSHAVLRSSCSSTRYPELCISAVVTAGGVELTSQKDVIEASVNLTITAVEHNYFTVKKLIKKRKGLTPREKTALHDCLETIDETLDELHETVEDLHLYPTKKTLREHAGDLKTLISSAITNQETCLDGFSHDDADKQVRKALLKGQIHVEHMCSNALAMIKNMTDTDIANFEQKAKITSNNRKLKEENQETTVAVDIAGAGELDSEGWPTWLSAGDRRLLQGSGVKADATVAADGSGTFKTVAAAVAAAPENSNKRYVIHIKAGVYRENVEVAKKKKNIMFMGDGRTRTIITGSRNVVDGSTTFHSATVAAVGERFLARDITFQNTAGPSKHQAVALRVGSDFSAFYNCDMLAYQDTLYVHSNRQFFVKCLIAGTVDFIFGNAAVVLQDCDIHARRPNSGQKNMVTAQGRTDPNQNTGIVIQKCRIGATSDLQSVKGSFPTYLGRPWKEYSQTVIMQSAISDVIRPEGWSEWTGTFALNTLTYREYSNTGAGAGTANRVKWRGFKVITAAAEAQKYTAGQFIGGGGWLSSTGFPFSLGL
